# Results as given in the supplement of paper PMC8728848.
# The list shows a part of the results.
# B1: AntigenI/IIA3VP1 (Streptococcus mutans), C9E3B4 (protein)
# chain: AANEADYQAKLTAYQTELARVQKANADAKAAYEAAVAANNAANAALTAENTAIKKRNADAKADYEAKLAKYQADLAKYQKDLADYPVKLKAYEDEQASIKAALAELEKHKNEDGNLTEPSAQNLVYDLEPNANLSLTTDGKFLKASAVDDAFSKSTSKAKYDQKILQLDDLDITNLEQSNDVASSMELYGNFGDKAGWSTTVSNNSQVKWGSVLLERGQSATATYTNLQNSYYNGKKISKIVYKYTVDPKSKFQGQKVWLGIFTDPTLGVFASAYTGQVEKNTSIFIKNEFTFYDEDGKPINFDNALLSVASLNREHNSIEMAKDYSGKFVKISGSSIGEKNGMIYATDTLNFKQGEGGSRWTMYKNSQAGSGWDSSDAPNSWYGAGAIKMSGPNNYVTVGATSATNVMPVSDMPVVPGKDNTDGKKPNIWYSLNGKIRAVNVPKVTKEKPTPPVKPTAPTKPTYETEKPLKPAPVAPNYEKEPTPPTRLEHHHHHH
# What was measured:
# Test in all cases: glycan array binding signal (z-score within array); higher = stronger binding
# Details in all cases: glycan notation: IUPAC condensed, linker removed
# [1] = molecular target: Fuc(a1-2)Gal(b1-4)GlcNAc(b1-3)Gal(b1-4)GlcNAc(b1-2)Man(a1-3)[Fuc(a1-2)Gal(b1-4)GlcNAc(b1-3)Gal(b1-4)GlcNAc(b1-2)Man(a1-6)]Man(b1-4)GlcNAc(b1-4)GlcNAc
# Summary of the method: (§1)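 The binding signal is a Z-score computed within each array. Data were drawn from 3228 arrays in the Consortium for Functional Glycomics database, restricted to those with a known protein sequence. Scores were averaged over arrays of the same protein sequence at different concentrations or buffers, and over linkers, and negative values can be taken as non-binding.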
# [2] = molecular target: Fuc(a1-2)Gal(b1-4)GlcNAc(b1-3)Gal(b1-4)GlcNAc(b1-3)Gal(b1-4)GlcNAc
# Summary of the method: as §1
# [3] = molecular target: Fuc(a1-2)Gal(b1-4)GlcNAc(b1-3)GalNAc
# Summary of the method: as §1
# [4] = molecular target: Fuc(a1-2)Gal(b1-4)GlcNAc(b1-3)[Fuc(a1-2)Gal(b1-4)GlcNAc(b1-6)]GalNAc
# Summary of the method: as §1
# [5] = molecular target: Fuc(a1-2)Gal(b1-4)GlcNAc(b1-3)[Fuc(a1-3)[Gal(b1-4)]GlcNAc(b1-6)]Gal(b1-4)Glc
# Summary of the method: as §1
# [6] = molecular target: Fuc(a1-2)Gal(b1-4)GlcNAc(b1-6)GalNAc
# Summary of the method: as §1
# [7] = molecular target: Fuc(a1-2)Gal(b1-4)GlcNAc6S
# Summary of the method: as §1
# [8] = molecular target: Fuc(a1-2)Gal(b1-4)[Fuc(a1-3)]GlcNAc
# Summary of the method: as §1
# [9] = molecular target: Fuc(a1-2)Gal(b1-4)[Fuc(a1-3)]GlcNAc(b1-2)Man(a1-3)[Fuc(a1-2)Gal(b1-4)[Fuc(a1-3)]GlcNAc(b1-2)Man(a1-6)]Man(b1-4)GlcNAc(b1-4)[Fuc(a1-6)]GlcNAc
# Summary of the method: as §1
# [10] = molecular target: Fuc(a1-2)Gal(b1-4)[Fuc(a1-3)]GlcNAc(b1-2)[Fuc(a1-2)Gal(b1-4)[Fuc(a1-3)]GlcNAc(b1-4)]Man(a1-3)[Fuc(a1-2)Gal(b1-4)[Fuc(a1-3)]GlcNAc(b1-2)Man(a1-6)]Man(b1-4)GlcNAc(b1-4)GlcNAc
# Summary of the method: as §1
# [11] = molecular target: Fuc(a1-2)Gal(b1-4)[Fuc(a1-3)]GlcNAc(b1-3)Gal(b1-4)[Fuc(a1-3)]GlcNAc
# Summary of the method: as §1
# [12] = molecular target: Fuc(a1-2)Gal(b1-4)[Fuc(a1-3)]GlcNAc(b1-3)Gal(b1-4)[Fuc(a1-3)]GlcNAc(b1-3)Gal(b1-4)[Fuc(a1-3)]GlcNAc
# Summary of the method: as §1
# [13] = molecular target: Fuc(a1-2)Gal(b1-4)[Fuc(a1-3)]GlcNAc(b1-3)GalNAc
# Summary of the method: as §1
# [14] = molecular target: Fuc(a1-2)Gal(b1-4)[Fuc(a1-3)]GlcNAc(b1-3)[Neu5Ac(a2-6)Gal(b1-4)GlcNAc(b1-6)]Gal(b1-4)Glc
# Summary of the method: as §1
# [15] = molecular target: Fuc(a1-2)Gal3S(b1-4)GlcNAc
# Summary of the method: as §1
# [16] = molecular target: Fuc(a1-2)Gal6S(b1-3)GlcNAc
# Summary of the method: as §1
# [17] = molecular target: Fuc(a1-2)Gal6S(b1-3)GlcNAc6S
# Summary of the method: as §1
# [18] = molecular target: Fuc(a1-2)Gal6S(b1-4)Glc
# Summary of the method: as §1
# [19] = molecular target: Fuc(a1-2)Gal6S(b1-4)Glc6S
# Summary of the method: as §1
# [20] = molecular target: Fuc(a1-2)[Gal(a1-3)]Gal
# Summary of the method: as §1
# [21] = molecular target: Fuc(a1-2)[Gal(a1-3)]Gal(b1-3)GalNAc
# Summary of the method: as §1
# [22] = molecular target: Fuc(a1-2)[Gal(a1-3)]Gal(b1-3)GalNAc(b1-3)Gal(a1-4)Gal(b1-4)Glc
# Summary of the method: as §1
# [23] = molecular target: Fuc(a1-2)[Gal(a1-3)]Gal(b1-3)GlcNAc
# Summary of the method: as §1
# [24] = molecular target: Fuc(a1-2)[Gal(a1-3)]Gal(b1-3)GlcNAc(b1-2)Man(a1-3)[Fuc(a1-2)[Gal(a1-3)]Gal(b1-3)GlcNAc(b1-2)Man(a1-6)]Man(b1-4)GlcNAc(b1-4)GlcNAc
# Summary of the method: as §1
# [25] = molecular target: Fuc(a1-2)[Gal(a1-3)]Gal(b1-3)GlcNAc(b1-2)Man(a1-3)[Fuc(a1-2)[Gal(a1-3)]Gal(b1-3)GlcNAc(b1-2)Man(a1-6)]Man(b1-4)GlcNAc(b1-4)[Fuc(a1-6)]GlcNAc
# Summary of the method: as §1
# [26] = molecular target: Fuc(a1-2)[Gal(a1-3)]Gal(b1-3)GlcNAc(b1-3)GalNAc
# Summary of the method: as §1
# [27] = molecular target: Fuc(a1-2)[Gal(a1-3)]Gal(b1-3)GlcNAc(b1-6)GalNAc
# Summary of the method: as §1
# [28] = molecular target: Fuc(a1-2)[Gal(a1-3)]Gal(b1-4)Glc
# Summary of the method: as §1
# [29] = molecular target: Fuc(a1-2)[Gal(a1-3)]Gal(b1-4)GlcNAc
# Summary of the method: as §1
# [30] = molecular target: Fuc(a1-2)[Gal(a1-3)]Gal(b1-4)GlcNAc(b1-2)Man
# Summary of the method: as §1
# [31] = molecular target: Fuc(a1-2)[Gal(a1-3)]Gal(b1-4)GlcNAc(b1-2)Man(a1-3)[Fuc(a1-2)[Gal(a1-3)]Gal(b1-4)GlcNAc(b1-2)Man(a1-6)]Man(b1-4)GlcNAc(b1-4)GlcNAc
# Summary of the method: as §1
# [32] = molecular target: Fuc(a1-2)[Gal(a1-3)]Gal(b1-4)GlcNAc(b1-2)Man(a1-3)[Fuc(a1-2)[Gal(a1-3)]Gal(b1-4)GlcNAc(b1-2)Man(a1-6)]Man(b1-4)GlcNAc(b1-4)[Fuc(a1-6)]GlcNAc
# Summary of the method: as §1
# [33] = molecular target: Fuc(a1-2)[Gal(a1-3)]Gal(b1-4)GlcNAc(b1-3)GalNAc
# Summary of the method: as §1
# [34] = molecular target: Fuc(a1-2)[Gal(a1-3)]Gal(b1-4)GlcNAc(b1-6)GalNAc
# Summary of the method: as §1
# [35] = molecular target: Fuc(a1-2)[Gal(a1-3)]Gal(b1-4)[Fuc(a1-3)]Glc
# Summary of the method: as §1
# [36] = molecular target: Fuc(a1-2)[Gal(a1-3)]Gal(b1-4)[Fuc(a1-3)]GlcNAc
# Summary of the method: as §1
# [37] = molecular target: Fuc(a1-2)[Gal(a1-3)]Gal(b1-4)[Fuc(a1-3)]GlcNAc(b1-3)GalNAc
# Summary of the method: as §1
# [38] = molecular target: Fuc(a1-2)[Gal(a1-4)]Gal(b1-4)GlcNAc
# Summary of the method: as §1
# [39] = molecular target: Fuc(a1-2)[GalNAc(a1-3)]Gal
# Summary of the method: as §1
# [40] = molecular target: Fuc(a1-2)[GalNAc(a1-3)]Gal(b1-3)GalNAc(a1-3)[Fuc(a1-2)]Gal(b1-4)GlcNAc
# Summary of the method: as §1
# [41] = molecular target: Fuc(a1-2)[GalNAc(a1-3)]Gal(b1-3)GalNAc(b1-3)Gal(a1-4)Gal(b1-4)Glc
# Summary of the method: as §1
# [42] = molecular target: Fuc(a1-2)[GalNAc(a1-3)]Gal(b1-3)GlcNAc
# Summary of the method: as §1
# [43] = molecular target: Fuc(a1-2)[GalNAc(a1-3)]Gal(b1-3)GlcNAc(b1-2)Man(a1-3)[Fuc(a1-2)[GalNAc(a1-3)]Gal(b1-3)GlcNAc(b1-2)Man(a1-6)]Man(b1-4)GlcNAc(b1-4)GlcNAc
# Summary of the method: as §1
# [44] = molecular target: Fuc(a1-2)[GalNAc(a1-3)]Gal(b1-3)GlcNAc(b1-2)Man(a1-3)[Fuc(a1-2)[GalNAc(a1-3)]Gal(b1-3)GlcNAc(b1-2)Man(a1-6)]Man(b1-4)GlcNAc(b1-4)[Fuc(a1-6)]GlcNAc
# Summary of the method: as §1
# [45] = molecular target: Fuc(a1-2)[GalNAc(a1-3)]Gal(b1-3)GlcNAc(b1-3)GalNAc
# Summary of the method: as §1
binder,measurement,setting,value
B1,glycan array binding signal (z-score),[1],0.725
same,glycan array binding signal (z-score),[2],0.654
same,glycan array binding signal (z-score),[3],-0.034
same,glycan array binding signal (z-score),[4],0.339
same,glycan array binding signal (z-score),[5],-0.845
same,glycan array binding signal (z-score),[6],1.89
same,glycan array binding signal (z-score),[7],-0.715
same,glycan array binding signal (z-score),[8],0.077
same,glycan array binding signal (z-score),[9],2.56
same,glycan array binding signal (z-score),[10],0.209
same,glycan array binding signal (z-score),[11],0.17
same,glycan array binding signal (z-score),[12],1.5
same,glycan array binding signal (z-score),[13],0.836
same,glycan array binding signal (z-score),[14],-0.89
same,glycan array binding signal (z-score),[15],-1.08
same,glycan array binding signal (z-score),[16],0.47
same,glycan array binding signal (z-score),[17],-0.124
same,glycan array binding signal (z-score),[18],-0.552
same,glycan array binding signal (z-score),[19],0.254
same,glycan array binding signal (z-score),[20],-0.228
same,glycan array binding signal (z-score),[21],0.123
same,glycan array binding signal (z-score),[22],-0.958
same,glycan array binding signal (z-score),[23],-0.863
same,glycan array binding signal (z-score),[24],-0.497
same,glycan array binding signal (z-score),[25],-0.592
same,glycan array binding signal (z-score),[26],1.6
same,glycan array binding signal (z-score),[27],0.337
same,glycan array binding signal (z-score),[28],-0.572
same,glycan array binding signal (z-score),[29],-1
same,glycan array binding signal (z-score),[30],-0.528
same,glycan array binding signal (z-score),[31],0.174
same,glycan array binding signal (z-score),[32],3.1
same,glycan array binding signal (z-score),[33],-0.213
same,glycan array binding signal (z-score),[34],-0.017
same,glycan array binding signal (z-score),[35],0.825
same,glycan array binding signal (z-score),[36],-0.161
same,glycan array binding signal (z-score),[37],-0.146
same,glycan array binding signal (z-score),[38],-0.2
same,glycan array binding signal (z-score),[39],-1.13
same,glycan array binding signal (z-score),[40],-0.354
same,glycan array binding signal (z-score),[41],-0.495
same,glycan array binding signal (z-score),[42],0.35
same,glycan array binding signal (z-score),[43],1.03
same,glycan array binding signal (z-score),[44],-0.775
same,glycan array binding signal (z-score),[45],0.739

# An excerpt taken from the entries so far, for reference:
binder,measurement,setting,value
B1,glycan array binding signal (z-score),[18],-0.552
same,glycan array binding signal (z-score),[19],0.254
